No constants are given. Whether binding was seen depends on the method and setting. For part of these data: Binding seen in cells or lysates may run through a third protein. Some entries that bind do so weakly or less than the wild type. For part of these data: Where a sequence is shown, tags or fusion partners need not be part of it.
T1: AOS in the split-ubiquitin system (bait AOS-Cub and prey NubG-AOS) (A. thaliana) (UniProt Q96242)
T1 sequence: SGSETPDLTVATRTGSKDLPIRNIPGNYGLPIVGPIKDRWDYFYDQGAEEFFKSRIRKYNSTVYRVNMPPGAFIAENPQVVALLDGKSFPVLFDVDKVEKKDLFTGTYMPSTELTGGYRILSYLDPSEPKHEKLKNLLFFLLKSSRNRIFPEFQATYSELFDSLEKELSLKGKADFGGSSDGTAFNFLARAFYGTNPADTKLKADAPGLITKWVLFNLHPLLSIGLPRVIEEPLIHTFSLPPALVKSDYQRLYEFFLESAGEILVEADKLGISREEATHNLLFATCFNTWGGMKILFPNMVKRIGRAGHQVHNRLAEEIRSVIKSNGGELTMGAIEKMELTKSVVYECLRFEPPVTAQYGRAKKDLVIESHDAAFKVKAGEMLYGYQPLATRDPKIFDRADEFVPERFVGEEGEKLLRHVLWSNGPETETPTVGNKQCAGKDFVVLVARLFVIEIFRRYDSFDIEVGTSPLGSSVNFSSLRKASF

T2: LOX2 bait in the split-ubiquitin system (LOX2-Cub) (A. thaliana) (UniProt P38418)
T2 sequence: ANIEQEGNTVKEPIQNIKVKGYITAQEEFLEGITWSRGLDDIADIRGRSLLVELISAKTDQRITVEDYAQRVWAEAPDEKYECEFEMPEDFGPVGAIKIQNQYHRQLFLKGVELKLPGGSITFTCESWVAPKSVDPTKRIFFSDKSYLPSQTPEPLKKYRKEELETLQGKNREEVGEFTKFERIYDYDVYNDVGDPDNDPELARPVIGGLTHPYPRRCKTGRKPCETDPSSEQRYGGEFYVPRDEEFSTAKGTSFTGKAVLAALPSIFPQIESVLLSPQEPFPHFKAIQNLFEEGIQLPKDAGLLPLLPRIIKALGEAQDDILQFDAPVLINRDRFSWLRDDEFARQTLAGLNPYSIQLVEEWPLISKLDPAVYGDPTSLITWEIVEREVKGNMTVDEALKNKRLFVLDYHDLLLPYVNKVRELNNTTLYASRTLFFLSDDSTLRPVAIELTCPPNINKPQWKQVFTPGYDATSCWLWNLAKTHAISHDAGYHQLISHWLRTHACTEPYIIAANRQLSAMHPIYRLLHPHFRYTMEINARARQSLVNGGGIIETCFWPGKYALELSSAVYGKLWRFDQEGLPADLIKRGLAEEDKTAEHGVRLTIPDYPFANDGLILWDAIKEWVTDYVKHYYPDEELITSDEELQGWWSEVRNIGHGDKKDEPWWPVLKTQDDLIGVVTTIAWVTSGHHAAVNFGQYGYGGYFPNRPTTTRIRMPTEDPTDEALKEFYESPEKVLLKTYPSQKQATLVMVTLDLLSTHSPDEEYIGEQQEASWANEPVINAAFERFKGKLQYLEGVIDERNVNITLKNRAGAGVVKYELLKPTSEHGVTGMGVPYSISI

T3: C-terminal, (His)6-tagged allene oxide synthase [AOS-(His)6] (A. thaliana) (UniProt Q96242)
T3 sequence: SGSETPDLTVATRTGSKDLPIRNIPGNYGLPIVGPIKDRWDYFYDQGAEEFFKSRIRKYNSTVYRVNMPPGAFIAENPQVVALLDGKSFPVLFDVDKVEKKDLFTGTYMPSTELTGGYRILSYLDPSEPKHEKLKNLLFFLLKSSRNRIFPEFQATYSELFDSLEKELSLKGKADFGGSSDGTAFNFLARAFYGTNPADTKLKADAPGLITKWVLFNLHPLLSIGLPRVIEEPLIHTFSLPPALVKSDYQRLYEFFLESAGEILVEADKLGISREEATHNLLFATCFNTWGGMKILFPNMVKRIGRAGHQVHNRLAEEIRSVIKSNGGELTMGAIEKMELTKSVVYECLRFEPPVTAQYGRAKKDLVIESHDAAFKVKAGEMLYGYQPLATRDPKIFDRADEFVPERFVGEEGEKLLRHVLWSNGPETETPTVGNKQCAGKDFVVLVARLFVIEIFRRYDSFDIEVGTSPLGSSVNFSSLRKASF


Key:
[1] = target: T1, AOS in the split-ubiquitin system (bait AOS-Cub and prey NubG-AOS) (A. thaliana); assay: two-hybrid; split-ubiquitin yeast two-hybrid for membrane-bound proteins (Dualsystems Biotech), yeast strain DSY1; baits fused to Cub, preys to NubG; growth on SD -Leu/-Trp/-His with 5 mM 3-amino-1,2,4-triazole and relative beta-galactosidase activity
[2] = target: T2, LOX2 bait in the split-ubiquitin system (LOX2-Cub) (A. thaliana); assay: as above
[3] = target: T3, C-terminal, (His)6-tagged allene oxide synthase [AOS-(His)6] (A. thaliana); assay: pull-down; purified (His)6-tagged bait imported into isolated Arabidopsis chloroplasts (2.5 mM Mg-ATP); mixed envelopes solubilised with […] decyl maltoside; Ni-NTA affinity chromatography, size exclusion on Superose 6 (peak I, ~250 kDa); co-purified bands identified by SDS-PAGE with protein sequencing, LOX2 also by western blot; only the target purified

binding [1] | binding [2] | binding [3] | Binder
binds | binds |  | AOS in the split-ubiquitin system (bait AOS-Cub and prey NubG-AOS) (enzyme, UniProt Q96242 34-518) SGSETPDLTVATRTGSKDLPIRNIPGNYGLPIVGPIKDRWDYFYDQGAEEFFKSRIRKYNSTVYRVNMPPGAFIAENPQVVALLDGKSFPVLFDVDKVEKKDLFTGTYMPSTELTGGYRILSYLDPSEPKHEKLKNLLFFLLKSSRNRIFPEFQATYSELFDSLEKELSLKGKADFGGSSDGTAFNFLARAFYGTNPADTKLKADAPGLITKWVLFNLHPLLSIGLPRVIEEPLIHTFSLPPALVKSDYQRLYEFFLESAGEILVEADKLGISREEATHNLLFATCFNTWGGMKILFPNMVKRIGRAGHQVHNRLAEEIRSVIKSNGGELTMGAIEKMELTKSVVYECLRFEPPVTAQYGRAKKDLVIESHDAAFKVKAGEMLYGYQPLATRDPKIFDRADEFVPERFVGEEGEKLLRHVLWSNGPETETPTVGNKQCAGKDFVVLVARLFVIEIFRRYDSFDIEVGTSPLGSSVNFSSLRKASF
binds | binds |  | AOC2 prey in the split-ubiquitin system (NubG-AOC2) (enzyme, UniProt Q9LS02 78-253) PSKVQELSVYEINELDRHSPKILKNAFSLMFGLGDLVPFTNKLYTGDLKKRVGITAGLCVVIEHVPEKKGERFEATYSFYFGDYGHLSVQGPYLTYEDSFLAITGGAGIFEGAYGQVKLQQLVYPTKLFYTFYLKGLANDLPLELTGTPVPPSKDIEPAPEAKALEPSGVISNYTN
 |  | binds | allene oxide cyclase 2 (AOC2), endogenous in the envelope of Arabidopsis chloroplasts (enzyme, UniProt Q9LS02 78-253, looked up, allene oxide cyclase 2 (AOC2), A. thaliana, ~72 kDa (SDS-resistant trimer) and ~24 kDa (monomer) bands of the plastid envelope; Found both as trimer and as monomer; source: endogenous, envelopes of isolated Arabidopsis chloroplasts) PSKVQELSVYEINELDRHSPKILKNAFSLMFGLGDLVPFTNKLYTGDLKKRVGITAGLCVVIEHVPEKKGERFEATYSFYFGDYGHLSVQGPYLTYEDSFLAITGGAGIFEGAYGQVKLQQLVYPTKLFYTFYLKGLANDLPLELTGTPVPPSKDIEPAPEAKALEPSGVISNYTN
 |  | binds | lipoxygenase 2 (LOX2), endogenous in the envelope of Arabidopsis chloroplasts (enzyme, UniProt P38418 57-896, looked up, lipoxygenase 2 (LOX2), A. thaliana, ~100 kDa band of the plastid envelope; also called 13-lipoxygenase; source: endogenous, envelopes of isolated Arabidopsis chloroplasts) ANIEQEGNTVKEPIQNIKVKGYITAQEEFLEGITWSRGLDDIADIRGRSLLVELISAKTDQRITVEDYAQRVWAEAPDEKYECEFEMPEDFGPVGAIKIQNQYHRQLFLKGVELKLPGGSITFTCESWVAPKSVDPTKRIFFSDKSYLPSQTPEPLKKYRKEELETLQGKNREEVGEFTKFERIYDYDVYNDVGDPDNDPELARPVIGGLTHPYPRRCKTGRKPCETDPSSEQRYGGEFYVPRDEEFSTAKGTSFTGKAVLAALPSIFPQIESVLLSPQEPFPHFKAIQNLFEEGIQLPKDAGLLPLLPRIIKALGEAQDDILQFDAPVLINRDRFSWLRDDEFARQTLAGLNPYSIQLVEEWPLISKLDPAVYGDPTSLITWEIVEREVKGNMTVDEALKNKRLFVLDYHDLLLPYVNKVRELNNTTLYASRTLFFLSDDSTLRPVAIELTCPPNINKPQWKQVFTPGYDATSCWLWNLAKTHAISHDAGYHQLISHWLRTHACTEPYIIAANRQLSAMHPIYRLLHPHFRYTMEINARARQSLVNGGGIIETCFWPGKYALELSSAVYGKLWRFDQEGLPADLIKRGLAEEDKTAEHGVRLTIPDYPFANDGLILWDAIKEWVTDYVKHYYPDEELITSDEELQGWWSEVRNIGHGDKKDEPWWPVLKTQDDLIGVVTTIAWVTSGHHAAVNFGQYGYGGYFPNRPTTTRIRMPTEDPTDEALKEFYESPEKVLLKTYPSQKQATLVMVTLDLLSTHSPDEEYIGEQQEASWANEPVINAAFERFKGKLQYLEGVIDERNVNITLKNRAGAGVVKYELLKPTSEHGVTGMGVPYSISI
